From the supplement of paper PMC10849652
This is one part of the list.

Protein sequences, listed by entry. Tags and fused reporters are not part of them. Lines headed by an entry give the natural chain unless they say otherwise; changes in a name come on top.
UniProt O15321, whole entry, looked up: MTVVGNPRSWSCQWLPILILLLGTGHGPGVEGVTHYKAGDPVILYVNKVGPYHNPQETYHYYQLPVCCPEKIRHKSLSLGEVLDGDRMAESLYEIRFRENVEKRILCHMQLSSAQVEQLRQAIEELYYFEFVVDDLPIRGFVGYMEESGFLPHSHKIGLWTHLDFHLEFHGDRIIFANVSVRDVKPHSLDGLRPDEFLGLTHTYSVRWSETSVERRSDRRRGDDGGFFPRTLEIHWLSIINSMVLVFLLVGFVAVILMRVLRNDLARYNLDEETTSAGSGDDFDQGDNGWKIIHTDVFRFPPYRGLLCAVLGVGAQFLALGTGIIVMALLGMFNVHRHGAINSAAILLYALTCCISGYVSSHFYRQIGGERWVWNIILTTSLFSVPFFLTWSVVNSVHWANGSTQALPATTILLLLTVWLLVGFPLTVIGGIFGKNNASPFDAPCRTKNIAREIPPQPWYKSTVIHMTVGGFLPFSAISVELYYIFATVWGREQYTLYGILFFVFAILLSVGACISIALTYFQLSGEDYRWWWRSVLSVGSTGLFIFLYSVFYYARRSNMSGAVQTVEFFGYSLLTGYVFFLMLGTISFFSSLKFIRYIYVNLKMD
UniProt O94886: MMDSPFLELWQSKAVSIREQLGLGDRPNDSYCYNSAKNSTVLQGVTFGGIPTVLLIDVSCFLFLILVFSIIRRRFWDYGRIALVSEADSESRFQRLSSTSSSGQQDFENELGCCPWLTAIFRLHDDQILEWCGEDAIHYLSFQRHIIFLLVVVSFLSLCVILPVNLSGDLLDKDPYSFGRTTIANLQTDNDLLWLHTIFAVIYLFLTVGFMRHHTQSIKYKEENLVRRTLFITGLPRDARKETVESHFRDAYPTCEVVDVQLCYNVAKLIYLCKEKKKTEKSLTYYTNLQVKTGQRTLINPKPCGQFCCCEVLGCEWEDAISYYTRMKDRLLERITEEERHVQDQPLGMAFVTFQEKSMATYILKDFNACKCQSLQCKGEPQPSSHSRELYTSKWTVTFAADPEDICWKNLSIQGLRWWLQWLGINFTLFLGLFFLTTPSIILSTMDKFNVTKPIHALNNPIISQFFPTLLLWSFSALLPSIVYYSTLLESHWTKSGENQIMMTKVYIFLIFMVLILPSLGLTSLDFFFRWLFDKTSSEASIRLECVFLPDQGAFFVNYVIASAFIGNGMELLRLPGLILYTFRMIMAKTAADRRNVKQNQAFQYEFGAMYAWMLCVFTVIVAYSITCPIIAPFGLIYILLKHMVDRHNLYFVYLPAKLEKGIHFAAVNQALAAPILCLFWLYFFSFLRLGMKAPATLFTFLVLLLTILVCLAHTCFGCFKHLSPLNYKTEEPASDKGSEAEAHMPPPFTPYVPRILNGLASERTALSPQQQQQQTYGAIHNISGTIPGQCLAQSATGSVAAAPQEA
UniProt Q9H7F4: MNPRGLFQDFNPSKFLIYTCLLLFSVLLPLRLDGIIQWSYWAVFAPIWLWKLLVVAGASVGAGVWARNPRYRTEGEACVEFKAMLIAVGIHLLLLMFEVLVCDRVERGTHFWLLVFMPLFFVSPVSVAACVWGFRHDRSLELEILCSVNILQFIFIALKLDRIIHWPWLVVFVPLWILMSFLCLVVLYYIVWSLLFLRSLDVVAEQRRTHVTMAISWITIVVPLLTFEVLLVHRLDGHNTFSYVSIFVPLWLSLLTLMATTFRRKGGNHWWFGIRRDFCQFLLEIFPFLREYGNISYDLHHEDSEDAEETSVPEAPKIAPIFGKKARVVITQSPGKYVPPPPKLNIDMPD
UniProt Q9P0T7: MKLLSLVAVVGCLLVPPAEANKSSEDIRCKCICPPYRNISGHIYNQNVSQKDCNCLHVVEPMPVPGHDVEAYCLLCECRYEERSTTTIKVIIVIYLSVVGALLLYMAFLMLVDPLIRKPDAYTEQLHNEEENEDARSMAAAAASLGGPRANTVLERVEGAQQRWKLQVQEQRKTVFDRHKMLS
UniProt Q96K49: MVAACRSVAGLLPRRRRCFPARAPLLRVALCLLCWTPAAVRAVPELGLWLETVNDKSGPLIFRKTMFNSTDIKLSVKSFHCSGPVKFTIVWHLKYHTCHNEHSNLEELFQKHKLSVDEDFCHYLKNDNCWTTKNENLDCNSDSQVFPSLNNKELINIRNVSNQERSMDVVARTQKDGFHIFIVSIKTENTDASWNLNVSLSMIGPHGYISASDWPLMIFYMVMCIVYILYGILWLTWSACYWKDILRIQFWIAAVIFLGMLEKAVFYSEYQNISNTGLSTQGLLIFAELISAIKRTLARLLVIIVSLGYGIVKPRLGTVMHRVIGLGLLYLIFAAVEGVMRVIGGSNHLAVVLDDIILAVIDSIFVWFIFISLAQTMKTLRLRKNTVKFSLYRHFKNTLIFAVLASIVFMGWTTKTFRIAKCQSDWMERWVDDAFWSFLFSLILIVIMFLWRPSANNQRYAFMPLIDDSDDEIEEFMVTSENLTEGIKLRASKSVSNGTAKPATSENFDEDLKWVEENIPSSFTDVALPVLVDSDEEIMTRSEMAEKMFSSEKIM
UniProt Q6NUQ4: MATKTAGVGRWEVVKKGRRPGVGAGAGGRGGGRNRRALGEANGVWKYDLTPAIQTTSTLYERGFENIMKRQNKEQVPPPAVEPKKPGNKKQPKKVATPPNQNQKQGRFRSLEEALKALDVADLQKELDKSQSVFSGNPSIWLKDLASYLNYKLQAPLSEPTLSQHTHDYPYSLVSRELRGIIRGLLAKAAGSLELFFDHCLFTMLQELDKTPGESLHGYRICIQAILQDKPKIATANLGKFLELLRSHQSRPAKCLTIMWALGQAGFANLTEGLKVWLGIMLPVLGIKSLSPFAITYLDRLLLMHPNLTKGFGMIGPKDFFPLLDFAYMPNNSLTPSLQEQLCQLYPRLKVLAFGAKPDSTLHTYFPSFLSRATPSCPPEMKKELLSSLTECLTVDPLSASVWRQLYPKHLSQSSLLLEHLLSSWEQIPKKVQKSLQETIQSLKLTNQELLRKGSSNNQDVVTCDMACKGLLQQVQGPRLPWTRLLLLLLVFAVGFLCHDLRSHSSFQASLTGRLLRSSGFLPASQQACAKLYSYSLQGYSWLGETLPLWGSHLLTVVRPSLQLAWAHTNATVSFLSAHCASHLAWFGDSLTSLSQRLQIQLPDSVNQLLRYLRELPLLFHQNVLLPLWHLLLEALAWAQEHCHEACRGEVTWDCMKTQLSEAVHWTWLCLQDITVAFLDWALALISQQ
UniProt Q9H0V1: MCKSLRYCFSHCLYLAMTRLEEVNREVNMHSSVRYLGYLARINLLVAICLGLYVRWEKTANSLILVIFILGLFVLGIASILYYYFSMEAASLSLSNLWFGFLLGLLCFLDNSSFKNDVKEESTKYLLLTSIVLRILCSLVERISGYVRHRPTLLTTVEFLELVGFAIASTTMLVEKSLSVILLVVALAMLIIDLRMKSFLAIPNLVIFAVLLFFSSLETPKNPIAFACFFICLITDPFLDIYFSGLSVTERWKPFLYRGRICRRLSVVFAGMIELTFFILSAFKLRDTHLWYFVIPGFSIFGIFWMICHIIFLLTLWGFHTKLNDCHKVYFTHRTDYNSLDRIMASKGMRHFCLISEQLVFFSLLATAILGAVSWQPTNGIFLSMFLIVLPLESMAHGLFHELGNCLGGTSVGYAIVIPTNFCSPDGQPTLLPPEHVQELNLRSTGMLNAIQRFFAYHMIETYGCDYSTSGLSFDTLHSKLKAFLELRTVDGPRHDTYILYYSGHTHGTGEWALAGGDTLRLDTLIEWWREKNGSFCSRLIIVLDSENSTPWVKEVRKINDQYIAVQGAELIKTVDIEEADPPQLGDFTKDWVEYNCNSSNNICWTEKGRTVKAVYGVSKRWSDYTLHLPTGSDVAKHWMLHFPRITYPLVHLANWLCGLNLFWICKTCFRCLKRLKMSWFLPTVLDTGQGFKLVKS
UniProt Q86UE8, whole entry, looked up: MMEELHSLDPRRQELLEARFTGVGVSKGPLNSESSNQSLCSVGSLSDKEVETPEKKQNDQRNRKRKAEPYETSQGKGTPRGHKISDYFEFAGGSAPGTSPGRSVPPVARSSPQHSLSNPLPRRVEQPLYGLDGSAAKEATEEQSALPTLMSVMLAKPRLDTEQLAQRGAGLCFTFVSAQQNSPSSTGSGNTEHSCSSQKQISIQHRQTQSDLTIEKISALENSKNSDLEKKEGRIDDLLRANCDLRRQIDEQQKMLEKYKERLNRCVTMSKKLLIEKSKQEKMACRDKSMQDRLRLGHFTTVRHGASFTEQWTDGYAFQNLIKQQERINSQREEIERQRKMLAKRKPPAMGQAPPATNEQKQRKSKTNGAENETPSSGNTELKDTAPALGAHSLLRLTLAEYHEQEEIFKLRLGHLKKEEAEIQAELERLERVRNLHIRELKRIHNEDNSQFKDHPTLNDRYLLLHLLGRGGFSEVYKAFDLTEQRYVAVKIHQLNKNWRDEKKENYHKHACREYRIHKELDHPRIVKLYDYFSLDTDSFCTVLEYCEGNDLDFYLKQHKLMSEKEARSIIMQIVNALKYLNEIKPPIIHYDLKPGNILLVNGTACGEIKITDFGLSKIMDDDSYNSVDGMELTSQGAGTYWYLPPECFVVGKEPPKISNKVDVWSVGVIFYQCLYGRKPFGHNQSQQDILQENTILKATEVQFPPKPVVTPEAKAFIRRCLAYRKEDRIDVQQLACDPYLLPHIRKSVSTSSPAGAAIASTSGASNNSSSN
UniProt Q8TBQ9: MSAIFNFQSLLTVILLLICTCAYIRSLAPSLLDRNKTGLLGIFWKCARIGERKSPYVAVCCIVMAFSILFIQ
UniProt Q8N511: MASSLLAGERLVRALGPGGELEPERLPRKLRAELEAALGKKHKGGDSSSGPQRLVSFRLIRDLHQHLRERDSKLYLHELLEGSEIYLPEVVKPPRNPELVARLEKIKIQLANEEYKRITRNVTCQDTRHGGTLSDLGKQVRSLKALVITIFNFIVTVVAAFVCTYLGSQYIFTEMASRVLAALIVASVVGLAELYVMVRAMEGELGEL
UniProt Q13445: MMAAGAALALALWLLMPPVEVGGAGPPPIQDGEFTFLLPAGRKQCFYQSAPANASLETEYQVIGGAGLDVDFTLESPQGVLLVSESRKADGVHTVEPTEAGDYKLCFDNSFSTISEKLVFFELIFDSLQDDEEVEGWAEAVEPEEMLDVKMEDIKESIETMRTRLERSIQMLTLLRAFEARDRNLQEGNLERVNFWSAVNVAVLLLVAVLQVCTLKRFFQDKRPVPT
UniProt Q9NYL9: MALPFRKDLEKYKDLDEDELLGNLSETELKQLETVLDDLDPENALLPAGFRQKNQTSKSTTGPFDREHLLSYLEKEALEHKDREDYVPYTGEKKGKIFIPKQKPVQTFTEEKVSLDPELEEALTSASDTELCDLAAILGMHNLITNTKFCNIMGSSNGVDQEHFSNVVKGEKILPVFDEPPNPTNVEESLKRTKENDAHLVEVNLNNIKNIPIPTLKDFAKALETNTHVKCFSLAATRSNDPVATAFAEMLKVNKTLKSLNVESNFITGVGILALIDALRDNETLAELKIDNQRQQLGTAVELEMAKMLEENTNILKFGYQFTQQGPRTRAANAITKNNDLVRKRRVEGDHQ
UniProt A0PJW6: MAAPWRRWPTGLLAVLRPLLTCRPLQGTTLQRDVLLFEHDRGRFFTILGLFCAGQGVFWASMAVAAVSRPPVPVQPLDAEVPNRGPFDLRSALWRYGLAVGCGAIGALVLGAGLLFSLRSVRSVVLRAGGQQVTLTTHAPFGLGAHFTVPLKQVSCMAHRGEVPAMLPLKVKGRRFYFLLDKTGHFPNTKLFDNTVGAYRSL
UniProt O00220, whole entry, looked up: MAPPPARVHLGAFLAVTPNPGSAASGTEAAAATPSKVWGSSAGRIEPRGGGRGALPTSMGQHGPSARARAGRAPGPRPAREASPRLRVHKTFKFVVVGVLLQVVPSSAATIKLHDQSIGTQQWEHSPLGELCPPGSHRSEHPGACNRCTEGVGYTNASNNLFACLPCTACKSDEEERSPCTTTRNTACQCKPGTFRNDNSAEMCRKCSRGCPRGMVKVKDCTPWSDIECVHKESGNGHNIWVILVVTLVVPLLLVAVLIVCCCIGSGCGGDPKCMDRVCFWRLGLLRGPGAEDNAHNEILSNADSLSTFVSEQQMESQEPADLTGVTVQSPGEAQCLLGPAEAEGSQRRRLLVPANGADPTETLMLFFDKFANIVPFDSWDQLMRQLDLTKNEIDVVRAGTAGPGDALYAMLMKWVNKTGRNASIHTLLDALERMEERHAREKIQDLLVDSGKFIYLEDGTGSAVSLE
UniProt Q96B96: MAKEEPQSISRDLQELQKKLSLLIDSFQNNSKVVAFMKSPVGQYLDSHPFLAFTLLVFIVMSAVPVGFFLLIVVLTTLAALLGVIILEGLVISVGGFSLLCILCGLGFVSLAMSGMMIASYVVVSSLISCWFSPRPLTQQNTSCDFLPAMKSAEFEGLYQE
UniProt Q9BVT8: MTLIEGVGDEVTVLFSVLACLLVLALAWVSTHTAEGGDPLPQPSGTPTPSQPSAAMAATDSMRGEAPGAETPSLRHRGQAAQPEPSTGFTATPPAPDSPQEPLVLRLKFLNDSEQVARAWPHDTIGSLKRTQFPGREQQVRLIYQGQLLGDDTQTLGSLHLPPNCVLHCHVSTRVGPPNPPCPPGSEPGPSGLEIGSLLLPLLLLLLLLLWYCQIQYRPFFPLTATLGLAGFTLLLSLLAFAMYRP

Tests used:
Assay in all cases: log2 fold change, soluble protein after heating vs DMSO (PISA); higher = thermal stabilisation; K562 cells, 10 uM, 30 min; active = over 0.2 and 3.5 SD of the protein, either way, in both replicates (recomputed)
[1] = compound: CS(=O)(=O)c1ccc(-c2cnc(N)c(C(=O)Nc3ccccc3)n2)cc1
In short: (§1)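 K562 cells at 2×10^6 cells/mL were given 10 μM compound for 30 min. Aliquots then went through 3 min of heating across 48°C-58°C, were pooled, and were extracted in PBS with 0.5% NP-40 at 4°C, and the supernatant after 21,000xg for 90 min was quantified by TMTpro 16plex LC-MS/MS with channel sums equalised. Thermal stability relative to control samples, from duplicates, is given as log2 fold change.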

crizotinib = compound: C[C@@H](Oc1cc(-c2cnn(C3CCNCC3)c2)cnc1N)c1c(Cl)ccc(F)c1Cl [crizotinib]
In short: as §1

[2] = compound: C[C@@H]1COCCN1C2=NC(=NC(=C2)C3(CC3)S(=O)(=O)C)C4=C5C=CNC5=CC=C4
In short: as §1

[3] = compound: C[C@H](C1=CC=C(C=C1)C(=O)NC2=C3C=CNC3=NC=C2)N
In short: as §1

duvelisib = compound: C[C@H](Nc1ncnc2nc[nH]c12)c1cc2cccc(Cl)c2c(=O)n1-c1ccccc1 [duvelisib]
In short: as §1

gandotinib = compound: Cc1cc(Nc2cc(CN3CCOCC3)c3nc(C)c(Cc4ccc(Cl)cc4F)n3n2)n[nH]1 [gandotinib]
In short: as §1

tozasertib = compound: Cc1cc(Nc2cc(N3CCN(C)CC3)nc(Sc3ccc(NC(=O)C4CC4)cc3)n2)n[nH]1 [tozasertib]
In short: as §1

[4] = compound: Cc1cc(SCc2sc(-c3ccc(C(F)(F)F)cc3)nc2C)ccc1OCC(=O)O
In short: as §1

doramapimod = compound: Cc1ccc(-n2nc(C(C)(C)C)cc2NC(=O)Nc2ccc(OCCN3CCOCC3)c3ccccc23)cc1 [doramapimod]
In short: as §1

ispinesib = compound: Cc1ccc(C(=O)N(CCCN)[C@@H](c2nc3cc(Cl)ccc3c(=O)n2Cc2ccccc2)C(C)C)cc1 [ispinesib]
In short: as §1

bafetinib = compound: Cc1ccc(NC(=O)c2ccc(CN3CC[C@H](N(C)C)C3)c(C(F)(F)F)c2)cc1Nc1nccc(-c2cncnc2)n1 [bafetinib]
In short: as §1

[5] = compound: Cc1cccc(CC(=O)N2CCc3c2ccc(-c2cn(C)c4ncnc(N)c24)c3F)n1
In short: as §1

nilotinib = compound: Cc1cn(-c2cc(NC(=O)c3ccc(C)c(Nc4nccc(-c5cccnc5)n4)c3)cc(C(F)(F)F)c2)cn1 [nilotinib]
In short: as §1

[6] = compound: Cc1nc(Nc2n[nH]c3c2CN(C(=O)N[C@H](CN(C)C)c2ccccc2)C3(C)C)c2sccc2n1
In short: as §1

dasatinib = compound: Cc1nc(Nc2ncc(C(=O)Nc3c(C)cccc3Cl)s2)cc(N2CCN(CCO)CC2)n1 [dasatinib]
In short: as §1

[7] = compound: Cc1ncc(-c2ccnc(Nc3ccc(S(C)(=O)=O)cc3)n2)n1C(C)C
In short: as §1

[8] = compound: Cn1cc(-c2ccc3c(c2)CCN3C(=O)Cc2cccc(C(F)(F)F)c2)c2c(N)ncnc21
In short: as §1

[9] = compound: Cn1cc(-c2ccc3nnc(C(F)(F)c4ccc5ncccc5c4)n3n2)cn1
In short: as §1

tipifarnib = compound: Cn1cncc1[C@@](N)(c1ccc(Cl)cc1)c1ccc2c(c1)c(-c1cccc(Cl)c1)cc(=O)n2C [tipifarnib]
In short: as §1

mubritinib = compound: FC(F)(F)c1ccc(/C=C/c2nc(COc3ccc(CCCCn4ccnn4)cc3)co2)cc1 [mubritinib]
In short: as §1

Measured: log2 fold change

TM9SF1 (UniProt O15321)
inactive: [1] 0.033 | crizotinib 0.067 | [2] 0.035 | [3] 0.058 | duvelisib 0.067 | gandotinib -0.117 | tozasertib 0.052 | [4] -0.034 | doramapimod 0.258 | ispinesib 0.06 | bafetinib 0.013 | [5] -0.038 | nilotinib 0.057 | [6] -0.023 | dasatinib 0.14 | [7] 0.099 | [8] -0.03 | [9] -0.015 | tipifarnib 0.049 | mubritinib 0.096

TMEM63A (UniProt O94886)
inactive: [1] 0.058 | crizotinib -0.072 | [2] 0.014 | [3] -0.029 | duvelisib 0.019 | gandotinib 0.018 | tozasertib -0.059 | [4] -0.04 | doramapimod 0.041 | bafetinib 0.089 | [5] -0.034 | nilotinib 0.038 | [6] 0.058 | dasatinib -0.006 | [7] 0.004 | [8] 0.032 | tipifarnib -0.016 | mubritinib 0.019

TMEM185B (UniProt Q9H7F4)
inactive: [1] 0.145 | crizotinib 0.01 | [2] -0.003 | [3] 0.015 | duvelisib 0.137 | gandotinib 0.027 | tozasertib 0.018 | [4] 0.005 | doramapimod -0.068 | ispinesib -0.179 | bafetinib -0.093 | [5] -0.004 | nilotinib 0.002 | [6] -0.041 | dasatinib 0.001 | [7] 0.152 | [8] -0.035 | [9] 0.01 | tipifarnib -0.057 | mubritinib 0.057

TMEM9 (UniProt Q9P0T7)
inactive: [1] -0.026 | crizotinib -0.026 | [2] 0.029 | [3] -0.197 | gandotinib -0.026 | [4] 0.014 | doramapimod 0.048 | ispinesib -0.093 | bafetinib 0.028 | [5] -0.048 | nilotinib -0.017 | [6] -0.022 | dasatinib -0.087 | [7] -0.037 | [8] 0.057 | [9] -0.007 | tipifarnib -0.068 | mubritinib 0.025

TMEM87B (UniProt Q96K49)
active: ispinesib -0.406
inactive: [1] 0.01 | crizotinib -0.323 | [2] -0.063 | [3] -0.033 | gandotinib -0.11 | [4] 0.071 | doramapimod -0.059 | bafetinib -0.138 | [5] 0.015 | nilotinib 0.037 | [6] -0.072 | dasatinib 0.002 | [7] 0.05 | [8] -0.077 | [9] -0.08 | tipifarnib 0.069 | mubritinib 0.006

Random excerpt: 2 entries already listed, in no set order.
TMEM9 (UniProt Q9P0T7)
inactive: [1] -0.026 | crizotinib -0.026 | [2] 0.029 | [3] -0.197 | gandotinib -0.026 | [4] 0.014 | doramapimod 0.048 | ispinesib -0.093 | bafetinib 0.028 | [5] -0.048 | nilotinib -0.017 | [6] -0.022 | dasatinib -0.087 | [7] -0.037 | [8] 0.057 | [9] -0.007 | tipifarnib -0.068 | mubritinib 0.025

TMEM87B (UniProt Q96K49)
active: ispinesib -0.406
inactive: [1] 0.01 | crizotinib -0.323 | [2] -0.063 | [3] -0.033 | gandotinib -0.11 | [4] 0.071 | doramapimod -0.059 | bafetinib -0.138 | [5] 0.015 | nilotinib 0.037 | [6] -0.072 | dasatinib 0.002 | [7] 0.05 | [8] -0.077 | [9] -0.08 | tipifarnib 0.069 | mubritinib 0.006

(continued)

TMEM214 (UniProt Q6NUQ4)
inactive: [1] -0.018 | crizotinib 0.123 | [2] -0.043 | [3] 0.067 | gandotinib -0.079 | [4] 0.048 | doramapimod -0.013 | ispinesib 0.072 | bafetinib 0.017 | [5] 0.029 | nilotinib -0.117 | [6] -0.02 | dasatinib -0.071 | [7] 0.023 | [8] -0.022 | [9] -0.041 | tipifarnib -0.047 | mubritinib 0.005

TMEM168 (UniProt Q9H0V1)
inactive: [1] -0.012 | crizotinib 0.051 | [2] -0.011 | [3] -0.037 | duvelisib -0.136 | gandotinib -0.07 | tozasertib 0.025 | [4] 0.058 | doramapimod -0.004 | ispinesib 0.024 | bafetinib -0.04 | [5] 0.047 | nilotinib 0.037 | [6] 0 | dasatinib 0.085 | [7] 0.022 | [8] 0.023 | [9] 0.056 | tipifarnib -0.031 | mubritinib 0.038

TLK2 isoform 2 (UniProt Q86UE8)
inactive: [1] -0.063 | crizotinib -0.031 | [2] 0.139 | [3] -0.095 | gandotinib 0.165 | [4] -0.07 | doramapimod -0.042 | ispinesib 0.019 | bafetinib -0.051 | [5] -0.042 | nilotinib 0.006 | dasatinib -0.01 | [7] 0.007 | [8] 0.046 | [9] -0.033 | tipifarnib 0.01 | mubritinib -0.001
active: [6] -0.407

TMEM167A (UniProt Q8TBQ9)
inactive: [1] 0.024 | crizotinib 0.05 | [2] -0.017 | [3] -0.164 | duvelisib 0.067 | gandotinib 0.013 | tozasertib -0.004 | [4] -0.072 | doramapimod -0.167 | ispinesib 0.135 | bafetinib -0.076 | [5] 0.038 | nilotinib 0.047 | [6] -0.024 | dasatinib 0.07 | [7] -0.015 | [8] 0.017 | [9] 0.006 | tipifarnib -0.008 | mubritinib -0.021

TMEM199 (UniProt Q8N511)
inactive: [1] -0.034 | crizotinib 0.086 | [2] -0.003 | [3] 0.056 | duvelisib 0.039 | gandotinib -0.008 | tozasertib -0.087 | [4] -0.039 | doramapimod 0.03 | ispinesib -0.121 | bafetinib -0.018 | [5] -0.12 | nilotinib -0.035 | [6] -0.02 | dasatinib 0.011 | [7] 0.013 | [8] -0.028 | [9] 0.082 | tipifarnib -0.058 | mubritinib -0.034

TMED1 (UniProt Q13445)
inactive: [1] -0.029 | crizotinib 0.149 | [2] 0.046 | [3] -0.116 | duvelisib 0.023 | gandotinib -0.023 | tozasertib -0.004 | [4] -0.017 | doramapimod 0.078 | ispinesib -0.022 | bafetinib -0.014 | [5] 0 | nilotinib -0.001 | [6] 0.035 | dasatinib -0.015 | [7] -0.004 | [8] 0.023 | [9] -0.015 | tipifarnib -0.03 | mubritinib 0.053

TMOD3 (UniProt Q9NYL9)
inactive: [1] -0.03 | crizotinib -0.005 | [2] -0.012 | [3] 0.096 | duvelisib 0.026 | gandotinib -0.076 | tozasertib 0.065 | [4] 0.06 | doramapimod -0.005 | ispinesib -0.032 | bafetinib -0.048 | [5] 0.057 | nilotinib -0.061 | [6] -0.09 | dasatinib -0.038 | [7] 0.041 | [8] -0.021 | [9] 0.011 | tipifarnib -0.044 | mubritinib 0.023

TMEM223 (UniProt A0PJW6)
active: ispinesib -0.254
inactive: [1] -0.008 | crizotinib -0.045 | [2] 0.038 | [3] 0.002 | gandotinib -0.14 | [4] 0 | doramapimod 0.015 | bafetinib -0.156 | [5] -0.005 | nilotinib 0.032 | [6] 0.033 | dasatinib -0.052 | [7] -0.079 | [8] -0.025 | [9] 0.038 | tipifarnib 0.013 | mubritinib 0.044

TMEM11 (UniProt P17152)
inactive: [1] 0.052 | crizotinib 0.145 | [2] 0.057 | [3] -0.086 | duvelisib 0.055 | gandotinib 0.002 | tozasertib -0.005 | [4] 0.076 | doramapimod -0.083 | ispinesib 0.095 | bafetinib -0.032 | [5] -0.029 | nilotinib -0.019 | [6] -0.011 | dasatinib 0.011 | [7] -0.024 | [8] -0.002 | [9] -0.134 | tipifarnib 0.025 | mubritinib 0.033

TNFRSF10A (UniProt O00220)
inactive: [1] -0.008 | crizotinib 0.037 | [2] 0.047 | [3] -0.073 | gandotinib 0.019 | [4] -0.019 | doramapimod -0.023 | ispinesib -0.075 | bafetinib -0.044 | [5] -0.051 | nilotinib 0.061 | [6] -0.055 | dasatinib -0.015 | [7] 0.058 | [8] -0.082 | [9] -0.005 | tipifarnib -0.054 | mubritinib -0.05

TMEM159 isoform 2 (UniProt Q96B96)
inactive: [1] -0.014 | [2] 0.002 | duvelisib 0.215 | gandotinib -0.133 | tozasertib 0.086 | [4] -0.219 | bafetinib -0.023 | [5] 0 | nilotinib -0.08 | [6] 0.165 | dasatinib -0.146 | [7] 0.065 | mubritinib 0.166

TMUB1 (UniProt Q9BVT8)
inactive: [1] -0.136 | [2] 0.335 | [3] 0.021 | duvelisib 0.18 | gandotinib 0.01 | tozasertib 0.054 | [4] 0 | ispinesib 0.006 | bafetinib 0.016 | [5] -0.306 | nilotinib 0.037 | [6] -0.035 | dasatinib -0.129 | [7] -0.046 | [8] -0.051 | [9] 0.194 | tipifarnib -0.053 | mubritinib 0.021
